Measured values as given in US20180119166A1.
No constants are given. Whether binding was seen depends on the method and setting. In cells and extracts the contact can be indirect. Some results given as binding are weak or reduced against the parent protein; the word gives no strength. Where a sequence is shown, tags or fusion partners need not be part of it.

Sequences of proteins named here, by UniProt entry; tags and fusion partners are left off. A change or cut given only in a name is not applied to a line headed by its entry. A line that says so, or that is headed by a name, gives the form on record, which may keep a tag or linker.
6x-histidine-fused LOS4 (LOS4-His) (Q93ZG7, form named): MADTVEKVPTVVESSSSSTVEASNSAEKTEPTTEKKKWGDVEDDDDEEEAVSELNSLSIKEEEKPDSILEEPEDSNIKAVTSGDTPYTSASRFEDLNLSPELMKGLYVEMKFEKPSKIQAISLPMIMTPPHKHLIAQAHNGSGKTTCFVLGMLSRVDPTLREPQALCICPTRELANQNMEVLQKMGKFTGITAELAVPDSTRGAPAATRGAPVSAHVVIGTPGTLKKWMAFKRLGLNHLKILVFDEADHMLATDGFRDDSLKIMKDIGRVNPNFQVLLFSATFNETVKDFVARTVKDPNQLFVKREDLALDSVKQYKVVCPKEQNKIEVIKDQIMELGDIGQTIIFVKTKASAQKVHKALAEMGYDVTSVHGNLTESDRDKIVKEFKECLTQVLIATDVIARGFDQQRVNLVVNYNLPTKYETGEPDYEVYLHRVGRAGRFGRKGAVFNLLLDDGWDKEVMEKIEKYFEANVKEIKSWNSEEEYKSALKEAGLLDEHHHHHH

Biological target: T1, maltose-binding protein (MBP)-fused Gle1 (MBP-Gle1) (Arabidopsis) (UniProt Q0WPZ7)
T1 sequence: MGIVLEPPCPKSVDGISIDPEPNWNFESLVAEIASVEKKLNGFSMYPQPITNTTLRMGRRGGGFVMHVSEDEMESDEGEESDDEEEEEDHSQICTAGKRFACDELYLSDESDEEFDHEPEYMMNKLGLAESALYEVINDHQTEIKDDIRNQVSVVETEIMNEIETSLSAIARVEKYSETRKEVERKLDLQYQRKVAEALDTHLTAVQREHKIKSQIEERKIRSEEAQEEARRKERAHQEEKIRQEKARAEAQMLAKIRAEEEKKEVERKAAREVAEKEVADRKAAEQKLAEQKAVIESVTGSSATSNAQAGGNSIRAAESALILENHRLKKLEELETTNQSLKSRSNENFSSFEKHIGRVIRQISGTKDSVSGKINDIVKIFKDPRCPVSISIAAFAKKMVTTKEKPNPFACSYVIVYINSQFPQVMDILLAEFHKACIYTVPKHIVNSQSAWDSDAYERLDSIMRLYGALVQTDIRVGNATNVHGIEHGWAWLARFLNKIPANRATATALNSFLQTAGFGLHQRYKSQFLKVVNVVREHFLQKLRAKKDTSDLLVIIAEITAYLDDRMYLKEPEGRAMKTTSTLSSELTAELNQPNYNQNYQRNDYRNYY
Assay: in vitro pull-down on nickel resin, Coomassie blue staining

binding: binds
Substance: 6x-histidine-fused LOS4 (LOS4-His) (from UniProt Q93ZG7 1-496) (enzyme)
